# Cleaved PARP in drug-treated melanoma cells

Source: doi:10.1371/journal.pone.0140310, primary screening data, rounded.

Drug key:
darinaparsin (2000 nM): C[As](C)SC[C@H](NC(=O)CC[C@H](N)C(=O)O)C(=O)NCC(=O)O
etoposide (100 nM): COc1cc([C@@H]2c3cc4c(cc3[C@@H](O[C@@H]3O[C@@H]5CO[C@@H](C)O[C@H]5[C@H](O)[C@H]3O)[C@H]3COC(=O)[C@H]23)OCO4)cc(OC)c1O
vatalanib (10000 nM): Clc1ccc(Nc2nnc(Cc3ccncc3)c3ccccc23)cc1
NVP-BEZ235 (20 nM): Cn1c(=O)n(-c2ccc(C(C)(C)C#N)cc2)c2c3cc(-c4cnc5ccccc5c4)ccc3ncc21
PLX4720 (400 nM): CCCS(=O)(=O)Nc1ccc(F)c(C(=O)c2c[nH]c3ncc(Cl)cc23)c1F
pazopanib (2000 nM): Cc1ccc(Nc2nccc(N(C)c3ccc4c(C)n(C)nc4c3)n2)cc1S(N)(=O)=O
vismodegib (5000 nM): CS(=O)(=O)c1ccc(C(=O)Nc2ccc(Cl)c(-c3ccccn3)c2)c(Cl)c1
JZL184 (5000 nM): O=C(Oc1ccc([N+](=O)[O-])cc1)N1CCC(C(O)(c2ccc3c(c2)OCO3)c2ccc3c(c2)OCO3)CC1
everolimus (100 nM): CO[C@H]1C[C@@H]2CC[C@@H](C)[C@@](O)(O2)C(=O)C(=O)N2CCCC[C@H]2C(=O)O[C@H]([C@H](C)C[C@@H]2CC[C@@H](OCCO)[C@H](OC)C2)CC(=O)[C@H](C)/C=C(\C)[C@@H](O)[C@@H](OC)C(=O)[C@H](C)C[C@H](C)/C=C/C=C/C=C/1C
dasatinib (20 nM): Cc1nc(Nc2ncc(C(=O)Nc3c(C)cccc3Cl)s2)cc(N2CCN(CCO)CC2)n1

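Human melanoma cells were exposed to a pair of drugs for 72 h in 1,536-well plates and read by automated microscopy after fixing and staining. Values are the share of nuclei positive for cleaved PARP as a percentage of the same share in the DMSO control: 100 is the control level, higher means more apoptosis. Every drug was used at one fixed concentration, the higher of two screened. The file gives one value for each pair and line, without errors, so small differences may be noise. The marker varies much from line to line, for technical or biological reasons.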 Only some of the drugs and lines screened are listed, without regard to their results. A dash means that no value is listed here.

Pair,RPMI-7951,C32,G-361,MeWo,WM1716,IPC-298,COLO 829,LB2518-MEL,COLO 800,WM3619,IST-MEL1,WM3526
etoposide + JZL184,80.9,169,211,124,133,141,189,81.5,55.4,133,26.5,204
pazopanib + vismodegib,22.6,33.7,126,35.6,76.3,211,56.3,78.9,54.9,98.2,44.1,117
PLX4720 + darinaparsin,95.4,79.6,350,97.9,107,88.6,140,138,158,97.0,89.7,283
etoposide + everolimus,159,131,132,61.3,136,135,53.8,33.4,52.5,149,63.4,119
pazopanib + everolimus,81.5,29.5,159,146,90.7,129,86.2,81.9,52.5,119,135,251
vismodegib + NVP-BEZ235,99.5,68.0,114,103,104,100,156,138,100,95.2,137,91.6
dasatinib + pazopanib,970,838,179,96.3,189,77.7,191,292,49.6,138,147,155
vatalanib + PLX4720,118,144,113,139,401,121,288,81.0,148,140,147,393
pazopanib + vatalanib,197,263,316,42.8,31.1,175,87.2,376,167,128,87.5,186
JZL184 + darinaparsin,84.0,99.7,30.0,172,152,61.8,40.1,72.3,143,123,57.5,68.8
pazopanib + NVP-BEZ235,193,172,313,65.1,51.6,90.5,128,184,80.4,101,174,181
vatalanib + NVP-BEZ235,74.6,125,186,86.4,157,378,227,251,135,228,59.9,271
JZL184 + vatalanib,67.8,88.8,128,141,139,81.9,93.4,113,411,127,271,92.0
etoposide + pazopanib,172,62.0,158,76.4,74.7,181,31.9,156,121,132,186,123
darinaparsin + vatalanib,160,51.7,163,130,50.6,130,103,89.8,61.0,327,349,113
vismodegib + PLX4720,253,101,207,72.2,148,95.4,74.3,-,206,117,116,179
NVP-BEZ235 + everolimus,108,1090,685,198,167,224,212,161,134,188,213,665
JZL184 + pazopanib,142,149,128,34.4,68.2,75.9,126,260,22.0,89.3,373,120
dasatinib + etoposide,518,1840,173,110,310,251,232,97.4,132,138,74.8,104
NVP-BEZ235 + JZL184,90.9,91.2,158,79.2,83.8,205,138,56.9,170,187,111,62.5
dasatinib + darinaparsin,244,494,102,239,766,126,211,99.7,143,110,87.7,264
vatalanib + etoposide,92.0,364,89.6,69.0,204,99.6,202,42.1,43.8,125,148,248
everolimus + vismodegib,178,98.2,182,81.6,29.9,211,127,141,173,146,79.9,267
NVP-BEZ235 + dasatinib,451,489,117,52.0,320,139,336,80.6,201,165,120,134
vismodegib + JZL184,141,142,94.3,168,45.8,71.9,129,73.9,109,95.5,88.3,144
PLX4720 + etoposide,87.0,184,252,75.3,225,314,175,-,71.9,139,456,73.0
dasatinib + JZL184,147,118,133,93.6,246,30.4,56.1,-,135,147,367,121
everolimus + PLX4720,34.0,452,198,54.2,71.8,327,88.9,93.0,47.5,303,173,256
everolimus + darinaparsin,92.0,371,352,285,74.0,47.5,157,349,125,175,161,369
JZL184 + PLX4720,111,117,364,142,196,123,252,41.5,169,126,161,250
vismodegib + dasatinib,421,159,62.3,98.2,183,185,128,56.4,261,131,98.1,197
darinaparsin + NVP-BEZ235,96.5,172,158,88.9,361,126,84.4,291,132,135,72.1,342
darinaparsin + etoposide,80.1,80.6,98.8,143,99.4,144,168,102,93.2,104,50.9,95.6
pazopanib + PLX4720,225,175,173,73.0,32.5,140,64.8,72.8,75.0,113,113,111
vatalanib + everolimus,202,687,55.1,158,22.9,199,102,147,156,176,123,430
etoposide + vismodegib,76.7,57.9,140,102,67.6,35.8,132,130,118,126,179,75.0
NVP-BEZ235 + PLX4720,90.0,99.1,465,81.0,54.8,208,179,103,63.6,139,80.2,205
darinaparsin + vismodegib,92.8,201,117,47.3,72.2,121,98.6,87.3,50.1,83.0,60.3,180

Once more, the final 3:

Pair,RPMI-7951,C32,G-361,MeWo,WM1716,IPC-298,COLO 829,LB2518-MEL,COLO 800,WM3619,IST-MEL1,WM3526
etoposide + vismodegib,76.7,57.9,140,102,67.6,35.8,132,130,118,126,179,75.0
NVP-BEZ235 + PLX4720,90.0,99.1,465,81.0,54.8,208,179,103,63.6,139,80.2,205
darinaparsin + vismodegib,92.8,201,117,47.3,72.2,121,98.6,87.3,50.1,83.0,60.3,180